Among the data in article PMC3784435 are binding values, retold here.

The target of this assay is CARP/ANIA-4. The experiment in a line: two-hybrid; yeast two-hybrid screen (Hybrigenics): bait CARP/ANIA-4 in pB27 (N-LexA-CARP-C) against the Mouse Adult Brain_RP1 ULTImate Y2H library; 79.3 million possible interactions screened; hits classed by Global PBS.

These are yes or no findings as the source states them, for the method shown. A result given as binding can be weak or reduced; the word gives no strength.

B1: Gnl3l (domain or fragment, UniProt Q6PGG6 8-268)
chain: NKKPGKGSKGCKKPARQNGKKVTSRPSSAPQIVHGNDHASREAELKKKRVEEMREKQQVAREQERQRHRTMESYCQDVLKRQQEFEQKEEVLQELNMFPQLDDEATRKAYYKEFRKVVEYSDVILEVLDARDPLGCRCFQMEETVLRAEGNKKLVLVLNKIDLVPKEIVEKWLEYLLNELPTVAFKASTQHHQVKNLTRCKVPVDQASESLLKSRACFGAENLMRVLGNYCRLGEVRGHIRVGVVGLPNVGKSSLINSLKR
For the molecule B1, the binding entry is listed as “binds”.

B2: Ap1m1 (domain or fragment, UniProt P35585 118-423)
chain: MDFGYPQTTDSKILQEYITQEGHKLETGAPRPPATVTNAVSWRSEGIKYRKNEVFLDVIEAVNLLVSANGNVLRSEIVGSIKMRVFLSGMPELRLGLNDKVLFDNTGRGKSKSVELEDVKFHQCVRLSRFENDRTISFIPPDGEFELMSYRLNTHVKPLIWIESVIEKHSHSRIEYMVKAKSQFKRRSTANNVEIHIPVPNDADSPKFKTTVGSVKWVPENSEIVWSVKSFPGGKEYLMRAHFGLPSVEAEDKEGKPPISVKFEIPYFTTSGIQVRYLKIIEKSGYQALPWVRYITQNGDYQLRTQ
On to B2, for which the binding result is reported as “binds”.
